Measurements published in patent US6770259 (dated 2004).
* marks the point of attachment. Dde = CC(=C1C(=O)CC(C)(C)CC1=O)*; Boc = CC(C)(C)OC(=O)*

Test: general procedure: Fmoc solid-phase peptide synthesis; HMPB-BHA resin; HATU/DIEA
Settings: whole synthesis

Boc-GK(Dde)K(Dde)K(Dde)-OH
isolated yield: 35%
